Experimental data from the supplement of paper PMC8728848.
This is one part of the list.

Columns and labels:
Assay in all cases: glycan array binding signal (z-score within array); higher = stronger binding
Conditions in all cases: glycan notation: IUPAC condensed, linker removed; mutation: R276L
[1] = biological target: Neu5Ac(a2-3)Gal6S(b1-4)[Fuc(a1-3)]GlcNAc
Method in brief: (§1)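 From the Consortium for Functional Glycomics database, 3228 arrays were curated, keeping only those whose protein sequence was available. Binding is given as a within-array Z-score averaged across arrays sharing a protein sequence and across linkers. Negative Z-scores can be read as non-binding.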

Neu5Ac(a2-3)GalNAc = biological target: Neu5Ac(a2-3)GalNAc
Method in brief: as §1

[2] = biological target: Neu5Ac(a2-3)GalNAc(b1-4)GlcNAc
Method in brief: as §1

[3] = biological target: Neu5Ac(a2-3)[GalNAc(b1-4)]Gal(b1-4)Glc
Method in brief: as §1

[4] = biological target: Neu5Ac(a2-3)[GalNAc(b1-4)]Gal(b1-4)GlcNAc
Method in brief: as §1

[5] = biological target: Neu5Ac(a2-3)[GalNAc(b1-4)]Gal(b1-4)GlcNAc(b1-3)GalNAc
Method in brief: as §1

[6] = biological target: Neu5Ac(a2-3)[Neu5Ac(a2-6)]GalNAc
Method in brief: as §1

Neu5Ac(a2-6)Gal = biological target: Neu5Ac(a2-6)Gal
Method in brief: as §1

[7] = biological target: Neu5Ac(a2-6)Gal(b1-3)GlcNAc(b1-3)[Gal(b1-4)GlcNAc(b1-6)]Gal(b1-4)Glc
Method in brief: as §1

Neu5Ac(a2-6)Gal(b1-4)Glc = biological target: Neu5Ac(a2-6)Gal(b1-4)Glc
Method in brief: as §1

[8] = biological target: Neu5Ac(a2-6)Gal(b1-4)GlcNAc
Method in brief: as §1

[9] = biological target: Neu5Ac(a2-6)Gal(b1-4)GlcNAc(b1-2)Man
Method in brief: as §1

[10] = biological target: Neu5Ac(a2-6)Gal(b1-4)GlcNAc(b1-2)Man(a1-3)Man(b1-4)GlcNAc(b1-4)GlcNAc
Method in brief: as §1

[11] = biological target: Neu5Ac(a2-6)Gal(b1-4)GlcNAc(b1-2)Man(a1-3)[Gal(b1-4)GlcNAc(b1-2)Man(a1-6)]Man(b1-4)GlcNAc(b1-4)GlcNAc
Method in brief: as §1

[12] = biological target: Neu5Ac(a2-6)Gal(b1-4)GlcNAc(b1-2)Man(a1-3)[GlcNAc(b1-2)Man(a1-6)]Man(b1-4)GlcNAc(b1-4)GlcNAc
Method in brief: as §1

[13] = biological target: Neu5Ac(a2-6)Gal(b1-4)GlcNAc(b1-2)Man(a1-3)[GlcNAc(b1-4)][Neu5Ac(a2-6)Gal(b1-4)GlcNAc(b1-2)Man(a1-6)]Man(b1-4)GlcNAc(b1-4)GlcNAc
Method in brief: as §1

[14] = biological target: Neu5Ac(a2-6)Gal(b1-4)GlcNAc(b1-2)Man(a1-3)[Man(a1-6)]Man(b1-4)GlcNAc(b1-4)GlcNAc
Method in brief: as §1

[15] = biological target: Neu5Ac(a2-6)Gal(b1-4)GlcNAc(b1-2)Man(a1-3)[Neu5Ac(a2-3)Gal(b1-4)GlcNAc(b1-2)Man(a1-6)]Man(b1-4)GlcNAc(b1-4)GlcNAc
Method in brief: as §1

[16] = biological target: Neu5Ac(a2-6)Gal(b1-4)GlcNAc(b1-2)Man(a1-3)[Neu5Ac(a2-6)Gal(b1-4)GlcNAc(b1-2)Man(a1-6)]Man(b1-4)GlcNAc(b1-4)GlcNAc
Method in brief: as §1

[17] = biological target: Neu5Ac(a2-6)Gal(b1-4)GlcNAc(b1-2)Man(a1-3)[Neu5Ac(a2-6)Gal(b1-4)GlcNAc(b1-2)Man(a1-6)]Man(b1-4)GlcNAc(b1-4)[Fuc(a1-6)]GlcNAc
Method in brief: as §1

[18] = biological target: Neu5Ac(a2-6)Gal(b1-4)GlcNAc(b1-2)Man(a1-6)Man(b1-4)GlcNAc(b1-4)GlcNAc
Method in brief: as §1

[19] = biological target: Neu5Ac(a2-6)Gal(b1-4)GlcNAc(b1-2)Man(a1-6)[Gal(b1-4)GlcNAc(b1-2)Man(a1-3)]Man(b1-4)GlcNAc(b1-4)GlcNAc
Method in brief: as §1

[20] = biological target: Neu5Ac(a2-6)Gal(b1-4)GlcNAc(b1-2)Man(a1-6)[GlcNAc(b1-2)Man(a1-3)]Man(b1-4)GlcNAc(b1-4)GlcNAc
Method in brief: as §1

[21] = biological target: Neu5Ac(a2-6)Gal(b1-4)GlcNAc(b1-2)Man(a1-6)[Man(a1-3)]Man(b1-4)GlcNAc(b1-4)GlcNAc
Method in brief: as §1

[22] = biological target: Neu5Ac(a2-6)Gal(b1-4)GlcNAc(b1-2)[Neu5Ac(a2-6)Gal(b1-4)GlcNAc(b1-4)]Man(a1-3)[GlcNAc(b1-4)][Neu5Ac(a2-6)Gal(b1-4)GlcNAc(b1-2)[Neu5Ac(a2-6)Gal(b1-4)GlcNAc(b1-6)]Man(a1-6)]Man(b1-4)GlcNAc(b1-4)GlcNAc
Method in brief: as §1

[23] = biological target: Neu5Ac(a2-6)Gal(b1-4)GlcNAc(b1-2)[Neu5Ac(a2-6)Gal(b1-4)GlcNAc(b1-4)]Man(a1-3)[GlcNAc(b1-4)][Neu5Ac(a2-6)Gal(b1-4)GlcNAc(b1-4)Man(a1-6)]Man(b1-4)GlcNAc(b1-4)GlcNAc
Method in brief: as §1

[24] = biological target: Neu5Ac(a2-6)Gal(b1-4)GlcNAc(b1-2)[Neu5Ac(a2-6)Gal(b1-4)GlcNAc(b1-6)]Man(a1-6)[Neu5Ac(a2-6)Gal(b1-4)GlcNAc(b1-2)Man(a1-3)][GlcNAc(b1-4)]Man(b1-4)GlcNAc(b1-4)GlcNAc
Method in brief: as §1

[25] = biological target: Neu5Ac(a2-6)Gal(b1-4)GlcNAc(b1-3)Gal(b1-3)GlcNAc
Method in brief: as §1

[26] = biological target: Neu5Ac(a2-6)Gal(b1-4)GlcNAc(b1-3)Gal(b1-4)GlcNAc
Method in brief: as §1

[27] = biological target: Neu5Ac(a2-6)Gal(b1-4)GlcNAc(b1-3)Gal(b1-4)GlcNAc(b1-2)Man(a1-3)[Neu5Ac(a2-6)Gal(b1-4)GlcNAc(b1-3)Gal(b1-4)GlcNAc(b1-2)Man(a1-6)]GalNAc
Method in brief: as §1

[28] = biological target: Neu5Ac(a2-6)Gal(b1-4)GlcNAc(b1-3)Gal(b1-4)GlcNAc(b1-3)Gal(b1-4)GlcNAc
Method in brief: as §1

[29] = biological target: Neu5Ac(a2-6)Gal(b1-4)GlcNAc(b1-3)Gal(b1-4)GlcNAc(b1-3)Gal(b1-4)GlcNAc(b1-2)Man(a1-3)[Neu5Ac(a2-6)Gal(b1-4)GlcNAc(b1-3)Gal(b1-4)GlcNAc(b1-3)Gal(b1-4)GlcNAc(b1-2)Man(a1-6)]GalNAc
Method in brief: as §1

[30] = biological target: Neu5Ac(a2-6)Gal(b1-4)GlcNAc(b1-3)Gal(b1-4)GlcNAc(b1-3)GalNAc
Method in brief: as §1

[31] = biological target: Neu5Ac(a2-6)Gal(b1-4)GlcNAc(b1-3)Gal(b1-4)GlcNAc(b1-3)[Neu5Ac(a2-6)Gal(b1-4)GlcNAc(b1-3)Gal(b1-4)GlcNAc(b1-6)]GalNAc
Method in brief: as §1

[32] = biological target: Neu5Ac(a2-6)Gal(b1-4)GlcNAc(b1-3)Gal(b1-4)GlcNAc(b1-6)[Gal(b1-3)]GalNAc
Method in brief: as §1

[33] = biological target: Neu5Ac(a2-6)Gal(b1-4)GlcNAc(b1-3)Gal(b1-4)[Fuc(a1-3)]GlcNAc(b1-3)Gal(b1-4)[Fuc(a1-3)]GlcNAc
Method in brief: as §1

[34] = biological target: Neu5Ac(a2-6)Gal(b1-4)GlcNAc(b1-3)GalNAc
Method in brief: as §1

B1: SUN4P (Saccharomyces cerevisiae), P53616 (protein)
chain: MGSSHHHHHHSSGLVPRGSHNGSIYGDLADFSGPYEKFEDGTIPCGQFPSGQGVIPISWLDEGGWSGVENTDTSTGGSCKEGSYCSYACQPGMSKTQWPSDQPSDGRSIGGLLCKDGYLYRSNTDTDYLCEWGVDAAYVVSELSNDVAICLTDYPGTENMVIPTYVQAGDSLPLTVVDQDTYYTWQGLKTSAQYYVNNAGISVEDACVWGSSSSGVGNWAPLNFGAGSSDGVAYLSLIPNPNNGNALNFNVKIVAADDSSTVNGECIYENGSFSGGSDGCTVSVTAGKAKFVLYN
[1]
  glycan array binding signal (z-score): -1.12
Neu5Ac(a2-3)GalNAc
  glycan array binding signal (z-score): -0.281
[2]
  glycan array binding signal (z-score): -1.69
[3]
  glycan array binding signal (z-score): 1.36
[4]
  glycan array binding signal (z-score): -0.232
[5]
  glycan array binding signal (z-score): -0.876
[6]
  glycan array binding signal (z-score): -0.295
Neu5Ac(a2-6)Gal
  glycan array binding signal (z-score): 0.469
[7]
  glycan array binding signal (z-score): -0.281
Neu5Ac(a2-6)Gal(b1-4)Glc
  glycan array binding signal (z-score): -0.078
[8]
  glycan array binding signal (z-score): 0.187
[9]
  glycan array binding signal (z-score): 0.374
[10]
  glycan array binding signal (z-score): -0.301
[11]
  glycan array binding signal (z-score): -0.654
[12]
  glycan array binding signal (z-score): 0.46
[13]
  glycan array binding signal (z-score): -0.15
[14]
  glycan array binding signal (z-score): -0.735
[15]
  glycan array binding signal (z-score): 0.435
[16]
  glycan array binding signal (z-score): -0.169
[17]
  glycan array binding signal (z-score): 0.79
[18]
  glycan array binding signal (z-score): -0.387
[19]
  glycan array binding signal (z-score): -0.797
[20]
  glycan array binding signal (z-score): 0.936
[21]
  glycan array binding signal (z-score): 0.554
[22]
  glycan array binding signal (z-score): -0.474
[23]
  glycan array binding signal (z-score): -0.912
[24]
  glycan array binding signal (z-score): -1.23
[25]
  glycan array binding signal (z-score): -1.15
[26]
  glycan array binding signal (z-score): -0.861
[27]
  glycan array binding signal (z-score): 1.07
[28]
  glycan array binding signal (z-score): 0.003
[29]
  glycan array binding signal (z-score): 0.367
[30]
  glycan array binding signal (z-score): -0.989
[31]
  glycan array binding signal (z-score): 0.361
[32]
  glycan array binding signal (z-score): 0.468
[33]
  glycan array binding signal (z-score): 0.494
[34]
  glycan array binding signal (z-score): -0.794
